Publication PMC6451337, “The Toxoplasma gondii dense granule protein TgGRA3 interacts with host Golgi and dysregulates anterograde transport” (Biology Open, 2019)

Biological target: T1, GST-Δ110-128 (Toxoplasma gondii) (UniProt B6KEU8)
T1 sequence: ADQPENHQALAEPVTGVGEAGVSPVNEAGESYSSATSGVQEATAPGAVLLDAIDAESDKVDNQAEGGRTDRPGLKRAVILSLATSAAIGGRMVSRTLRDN
Assay: pull-down; 60 μg of recombinant GST protein bound to glutathione-Sepharose beads, incubated with pre-cleared lysate of GRA23_3×HA parasites in buffer B for 1 h at room temperature; anti-HA immunoblot; only the target purified

## TgGRA23_3×HA (Toxoplasma gondii)
  binding: no binding

Results are given in words; binding and its absence hold for the method and conditions named. Binding seen in cells or lysates may run through a third protein. Sequences can lack the tags named with a protein.
